Measurements reported in the supplement of paper PMC12067093, “Discovery and optimisation of a covalent ligand for TRIM25 and its application to targeted protein ubiquitination” (Chemical Science, 2025).
Some of the results follow.

By UniProt entry, the sequences of proteins in these tests, tags left out. Where a name states a change or a piece, a line headed by the entry shows the natural chain unless it says otherwise.
UniProt Q96FS4: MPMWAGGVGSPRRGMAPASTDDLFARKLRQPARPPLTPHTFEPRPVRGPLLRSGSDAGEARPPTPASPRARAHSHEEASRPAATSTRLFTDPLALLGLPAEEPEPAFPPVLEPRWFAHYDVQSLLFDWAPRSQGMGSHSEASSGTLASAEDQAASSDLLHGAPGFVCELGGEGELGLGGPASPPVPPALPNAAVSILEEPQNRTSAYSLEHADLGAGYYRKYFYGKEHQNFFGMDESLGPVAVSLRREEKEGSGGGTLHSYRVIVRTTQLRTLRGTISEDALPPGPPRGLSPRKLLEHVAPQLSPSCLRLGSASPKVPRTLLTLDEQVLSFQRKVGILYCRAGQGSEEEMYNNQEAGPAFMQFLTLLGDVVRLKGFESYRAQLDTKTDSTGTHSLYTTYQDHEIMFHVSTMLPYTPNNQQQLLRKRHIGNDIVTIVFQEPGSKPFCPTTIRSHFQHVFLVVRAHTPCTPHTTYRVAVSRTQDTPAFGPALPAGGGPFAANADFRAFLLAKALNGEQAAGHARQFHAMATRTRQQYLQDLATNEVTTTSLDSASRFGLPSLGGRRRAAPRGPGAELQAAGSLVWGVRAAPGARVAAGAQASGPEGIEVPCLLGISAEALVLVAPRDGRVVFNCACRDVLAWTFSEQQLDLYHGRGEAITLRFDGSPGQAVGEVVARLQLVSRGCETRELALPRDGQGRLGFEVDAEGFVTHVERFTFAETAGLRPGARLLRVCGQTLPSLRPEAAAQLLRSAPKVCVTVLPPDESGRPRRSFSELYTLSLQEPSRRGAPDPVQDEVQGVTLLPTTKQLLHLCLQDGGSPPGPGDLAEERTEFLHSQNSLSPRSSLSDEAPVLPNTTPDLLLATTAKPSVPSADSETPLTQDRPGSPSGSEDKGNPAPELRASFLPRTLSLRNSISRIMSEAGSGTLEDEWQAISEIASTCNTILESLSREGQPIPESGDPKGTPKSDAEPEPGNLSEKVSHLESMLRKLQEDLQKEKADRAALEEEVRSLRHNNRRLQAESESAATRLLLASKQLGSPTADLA
UniProt Q12874: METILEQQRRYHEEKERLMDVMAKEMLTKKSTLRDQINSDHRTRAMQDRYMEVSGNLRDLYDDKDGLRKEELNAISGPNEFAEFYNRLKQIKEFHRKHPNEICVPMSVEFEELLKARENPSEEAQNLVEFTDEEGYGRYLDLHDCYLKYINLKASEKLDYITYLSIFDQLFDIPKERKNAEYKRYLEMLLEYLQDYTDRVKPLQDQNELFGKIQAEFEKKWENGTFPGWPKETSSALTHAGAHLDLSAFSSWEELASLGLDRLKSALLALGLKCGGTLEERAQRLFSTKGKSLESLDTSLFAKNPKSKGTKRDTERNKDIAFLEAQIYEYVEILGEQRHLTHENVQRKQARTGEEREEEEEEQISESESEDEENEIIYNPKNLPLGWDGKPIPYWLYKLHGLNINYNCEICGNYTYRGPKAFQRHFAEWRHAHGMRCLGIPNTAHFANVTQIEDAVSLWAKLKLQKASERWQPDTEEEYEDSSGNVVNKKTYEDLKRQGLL
UniProt Q14141: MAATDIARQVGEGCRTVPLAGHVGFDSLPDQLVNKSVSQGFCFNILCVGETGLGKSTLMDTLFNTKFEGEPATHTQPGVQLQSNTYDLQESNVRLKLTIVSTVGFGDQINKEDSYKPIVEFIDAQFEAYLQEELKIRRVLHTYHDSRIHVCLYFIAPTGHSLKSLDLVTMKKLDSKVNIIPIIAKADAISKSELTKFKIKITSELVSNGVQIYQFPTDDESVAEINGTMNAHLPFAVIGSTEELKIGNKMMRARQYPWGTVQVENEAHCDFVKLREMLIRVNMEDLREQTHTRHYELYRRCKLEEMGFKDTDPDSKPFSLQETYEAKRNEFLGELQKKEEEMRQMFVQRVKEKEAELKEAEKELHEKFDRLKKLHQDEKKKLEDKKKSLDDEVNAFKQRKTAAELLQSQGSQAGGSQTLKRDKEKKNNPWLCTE
UniProt Q15459: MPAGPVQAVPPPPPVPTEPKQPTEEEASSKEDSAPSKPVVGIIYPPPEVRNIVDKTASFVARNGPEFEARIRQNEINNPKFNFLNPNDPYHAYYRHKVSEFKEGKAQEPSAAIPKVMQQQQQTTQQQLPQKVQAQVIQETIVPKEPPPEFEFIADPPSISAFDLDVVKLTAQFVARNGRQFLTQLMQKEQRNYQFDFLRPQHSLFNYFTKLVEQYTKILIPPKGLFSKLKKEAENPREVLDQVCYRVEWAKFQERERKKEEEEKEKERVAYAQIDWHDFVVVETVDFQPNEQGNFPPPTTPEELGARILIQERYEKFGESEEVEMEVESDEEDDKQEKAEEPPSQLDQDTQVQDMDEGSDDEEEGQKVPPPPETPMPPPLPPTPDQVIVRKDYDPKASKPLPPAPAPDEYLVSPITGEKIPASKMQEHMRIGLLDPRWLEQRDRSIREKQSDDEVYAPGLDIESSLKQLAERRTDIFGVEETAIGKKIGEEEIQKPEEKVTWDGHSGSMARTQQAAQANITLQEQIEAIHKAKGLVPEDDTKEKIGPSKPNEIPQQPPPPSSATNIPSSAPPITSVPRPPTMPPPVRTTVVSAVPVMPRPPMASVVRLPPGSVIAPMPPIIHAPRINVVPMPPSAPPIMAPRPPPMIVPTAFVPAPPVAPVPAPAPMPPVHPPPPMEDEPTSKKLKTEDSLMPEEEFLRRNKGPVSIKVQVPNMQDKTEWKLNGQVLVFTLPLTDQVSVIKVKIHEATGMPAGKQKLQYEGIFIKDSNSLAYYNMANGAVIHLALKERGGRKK
UniProt P53007, whole entry, looked up: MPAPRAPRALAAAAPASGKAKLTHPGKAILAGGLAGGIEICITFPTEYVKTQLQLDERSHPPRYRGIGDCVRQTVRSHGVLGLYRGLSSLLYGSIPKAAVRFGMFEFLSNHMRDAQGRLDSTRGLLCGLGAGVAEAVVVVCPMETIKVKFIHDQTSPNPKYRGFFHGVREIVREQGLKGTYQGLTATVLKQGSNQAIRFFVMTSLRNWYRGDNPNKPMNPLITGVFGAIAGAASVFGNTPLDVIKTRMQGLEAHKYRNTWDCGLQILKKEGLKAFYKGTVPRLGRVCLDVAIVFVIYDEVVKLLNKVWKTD
UniProt O75746: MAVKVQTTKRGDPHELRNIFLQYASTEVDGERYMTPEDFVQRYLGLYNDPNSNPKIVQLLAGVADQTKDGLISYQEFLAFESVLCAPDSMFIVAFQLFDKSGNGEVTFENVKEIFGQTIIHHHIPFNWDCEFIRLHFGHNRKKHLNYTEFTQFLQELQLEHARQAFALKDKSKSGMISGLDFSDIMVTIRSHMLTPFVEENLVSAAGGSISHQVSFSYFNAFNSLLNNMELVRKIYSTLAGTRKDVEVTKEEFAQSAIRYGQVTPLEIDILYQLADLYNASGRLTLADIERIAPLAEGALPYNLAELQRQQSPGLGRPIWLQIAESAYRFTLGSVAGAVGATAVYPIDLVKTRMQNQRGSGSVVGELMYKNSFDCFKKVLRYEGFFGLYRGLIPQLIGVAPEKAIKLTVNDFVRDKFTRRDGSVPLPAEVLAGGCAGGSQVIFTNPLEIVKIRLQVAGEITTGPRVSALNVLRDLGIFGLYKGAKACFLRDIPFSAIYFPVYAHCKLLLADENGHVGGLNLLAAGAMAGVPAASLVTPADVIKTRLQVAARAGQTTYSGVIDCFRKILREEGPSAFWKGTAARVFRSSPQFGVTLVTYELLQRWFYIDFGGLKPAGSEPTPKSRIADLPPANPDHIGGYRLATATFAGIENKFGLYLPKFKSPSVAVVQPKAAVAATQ
UniProt Q15393: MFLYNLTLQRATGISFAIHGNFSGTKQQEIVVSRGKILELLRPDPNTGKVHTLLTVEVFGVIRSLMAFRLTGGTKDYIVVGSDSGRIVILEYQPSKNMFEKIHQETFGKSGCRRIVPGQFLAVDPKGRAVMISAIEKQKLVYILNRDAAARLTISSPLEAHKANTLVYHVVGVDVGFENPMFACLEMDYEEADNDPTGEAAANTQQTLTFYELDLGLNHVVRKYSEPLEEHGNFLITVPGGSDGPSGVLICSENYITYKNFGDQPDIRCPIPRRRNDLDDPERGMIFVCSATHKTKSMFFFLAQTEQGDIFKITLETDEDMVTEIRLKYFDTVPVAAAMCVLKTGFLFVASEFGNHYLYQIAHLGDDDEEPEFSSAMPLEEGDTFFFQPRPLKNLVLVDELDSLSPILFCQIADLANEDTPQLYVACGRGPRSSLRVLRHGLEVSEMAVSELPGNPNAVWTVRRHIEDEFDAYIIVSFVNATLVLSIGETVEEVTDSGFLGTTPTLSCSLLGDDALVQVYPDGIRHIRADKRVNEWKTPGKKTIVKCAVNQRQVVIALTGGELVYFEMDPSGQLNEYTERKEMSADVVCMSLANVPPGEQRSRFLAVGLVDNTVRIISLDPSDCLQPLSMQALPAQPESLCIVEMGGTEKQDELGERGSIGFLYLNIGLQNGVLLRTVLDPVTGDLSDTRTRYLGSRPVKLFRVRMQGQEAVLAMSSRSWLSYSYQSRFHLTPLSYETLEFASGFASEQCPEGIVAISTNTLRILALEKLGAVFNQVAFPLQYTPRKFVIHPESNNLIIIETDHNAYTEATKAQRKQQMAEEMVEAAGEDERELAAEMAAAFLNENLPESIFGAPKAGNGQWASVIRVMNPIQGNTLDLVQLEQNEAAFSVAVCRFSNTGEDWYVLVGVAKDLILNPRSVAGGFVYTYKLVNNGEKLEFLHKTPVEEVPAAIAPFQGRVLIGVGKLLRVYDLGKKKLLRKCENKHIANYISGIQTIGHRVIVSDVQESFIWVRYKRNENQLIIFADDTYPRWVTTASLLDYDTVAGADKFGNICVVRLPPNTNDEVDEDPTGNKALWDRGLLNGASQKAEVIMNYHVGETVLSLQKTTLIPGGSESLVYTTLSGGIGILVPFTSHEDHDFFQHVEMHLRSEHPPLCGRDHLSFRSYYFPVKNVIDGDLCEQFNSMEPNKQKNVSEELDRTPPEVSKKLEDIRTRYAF
UniProt Q9UBX3: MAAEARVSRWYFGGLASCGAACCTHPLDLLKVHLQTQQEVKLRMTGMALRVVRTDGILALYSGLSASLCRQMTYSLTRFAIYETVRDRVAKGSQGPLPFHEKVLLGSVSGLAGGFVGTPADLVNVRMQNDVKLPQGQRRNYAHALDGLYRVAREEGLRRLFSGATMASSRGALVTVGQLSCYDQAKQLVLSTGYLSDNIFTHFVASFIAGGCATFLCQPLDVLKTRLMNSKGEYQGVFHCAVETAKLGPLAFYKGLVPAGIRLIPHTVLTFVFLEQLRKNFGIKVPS
UniProt Q15477, whole entry, looked up: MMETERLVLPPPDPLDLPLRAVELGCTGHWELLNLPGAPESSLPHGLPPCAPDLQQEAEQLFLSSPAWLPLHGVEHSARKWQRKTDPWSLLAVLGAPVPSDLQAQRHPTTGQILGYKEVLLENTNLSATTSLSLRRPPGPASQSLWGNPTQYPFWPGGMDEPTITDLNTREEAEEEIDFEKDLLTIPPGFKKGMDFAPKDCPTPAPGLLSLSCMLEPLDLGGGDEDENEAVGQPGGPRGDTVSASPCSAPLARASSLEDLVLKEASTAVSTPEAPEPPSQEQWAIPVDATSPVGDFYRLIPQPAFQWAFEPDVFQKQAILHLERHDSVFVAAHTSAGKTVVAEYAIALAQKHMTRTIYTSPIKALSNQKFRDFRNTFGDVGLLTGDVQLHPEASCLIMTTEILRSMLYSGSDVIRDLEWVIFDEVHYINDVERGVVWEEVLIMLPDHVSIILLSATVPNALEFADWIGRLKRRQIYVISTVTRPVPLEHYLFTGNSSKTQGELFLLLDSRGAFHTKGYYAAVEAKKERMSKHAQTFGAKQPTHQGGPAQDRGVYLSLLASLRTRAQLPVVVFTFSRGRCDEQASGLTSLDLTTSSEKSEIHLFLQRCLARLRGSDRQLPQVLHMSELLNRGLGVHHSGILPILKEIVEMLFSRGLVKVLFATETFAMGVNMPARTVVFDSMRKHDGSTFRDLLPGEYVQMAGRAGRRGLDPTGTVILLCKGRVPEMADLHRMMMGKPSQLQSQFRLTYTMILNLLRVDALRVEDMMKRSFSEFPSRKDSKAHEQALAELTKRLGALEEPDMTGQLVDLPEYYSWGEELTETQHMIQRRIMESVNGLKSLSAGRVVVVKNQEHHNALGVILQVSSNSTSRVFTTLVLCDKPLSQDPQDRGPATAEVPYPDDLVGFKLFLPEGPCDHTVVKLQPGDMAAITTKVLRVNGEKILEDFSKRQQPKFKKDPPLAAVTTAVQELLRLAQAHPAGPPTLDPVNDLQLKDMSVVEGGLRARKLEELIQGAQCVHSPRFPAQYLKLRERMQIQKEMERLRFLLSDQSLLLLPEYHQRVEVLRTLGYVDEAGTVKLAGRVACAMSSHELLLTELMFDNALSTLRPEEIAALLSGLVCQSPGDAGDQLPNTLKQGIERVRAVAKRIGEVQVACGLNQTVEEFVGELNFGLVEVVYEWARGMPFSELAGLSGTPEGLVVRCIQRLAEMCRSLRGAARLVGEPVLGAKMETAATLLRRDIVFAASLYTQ

Compound: Cc1cc(ccc1-c1ccccc1)C(=O)N1CCCN(CC1)C(=O)CCl [compound 10]
Experiment: probe-labelled cysteine peptide fold change vs DMSO (competition) (log2 fold change); higher = less target engagement (more negative = stronger competition)
Settings: THP-1, incubation time: 4 h
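Note: competitive profiling in live THP-1 cells: cysteine peptides tagged with an iodoacetamide desthiobiotin (IA-DTB) probe, intensity after compound treatment relative to DMSO-treated cells.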

Target	probe-labelled cysteine peptide fold change (10 µM)	probe-labelled cysteine peptide fold change (50 µM)
SIPA1_Q96FS4_467_AHTPCTPHTTYR (UniProt Q96FS4)	0.0796	0.0157
SF3A3_Q12874_103_HPNEICVPMSVEFEELLK (UniProt Q12874)	-0.071	0.324
SEPT6_Q14141_47_SVSQGFCFNILCVGETGLGK (UniProt Q14141)	0.578	0.368
SF3A1_Q15459_244_EAENPREVLDQVCYR (UniProt Q15459)	-0.23	-0.308
SLC25A1_P53007_127+141_GLLCGLGAGVAEAVVVVCPMETIK (UniProt P53007)	0.261	0.15
SLC1A5_Q15758_39_GLAAAEPTANGGLALASIEDQGAAAGGYCGSR (UniProt Q15758)	-0.33	0.0468
SLC25A12_O75746_563_AGQTTYSGVIDCFRK (UniProt O75746)	0.0727	-0.109
SF3B3_Q15393_547_CAVNQR (UniProt Q15393)	0.197	0.0267
SLC25A10_Q9UBX3_181_GALVTVGQLSCYDQAK (UniProt Q9UBX3)	0.034	0.264
SKIV2L_Q15477_719_GLDPTGTVILLCK (UniProt Q15477)	0.0937	0.25
